Experimental data reported in the supplement of paper PMC12823440, “Inhibitors supercharge kinase turnover through native proteolytic circuits” (Nature, 2025).
Structures can show the parent of a compound that is named as a salt. Some of the results follow. The calls rarely recur for the same compound in another form.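 Kinases, fused to nanoluciferase, were expressed in K562 cells; luminescence was measured every 4 h from 2 to 18 h as percent of control (DMSO = 100%, positive control = 0%). A time point is decreased if signal falls significantly (2 sigma). Hits were called by the authors by a rule that is not shown; the count of time points alone does not decide it.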

By UniProt entry, the sequences of proteins in these tests, tags left out. Where a name states a change or a piece, a line headed by the entry shows the natural chain unless it says otherwise.
UniProt P06239: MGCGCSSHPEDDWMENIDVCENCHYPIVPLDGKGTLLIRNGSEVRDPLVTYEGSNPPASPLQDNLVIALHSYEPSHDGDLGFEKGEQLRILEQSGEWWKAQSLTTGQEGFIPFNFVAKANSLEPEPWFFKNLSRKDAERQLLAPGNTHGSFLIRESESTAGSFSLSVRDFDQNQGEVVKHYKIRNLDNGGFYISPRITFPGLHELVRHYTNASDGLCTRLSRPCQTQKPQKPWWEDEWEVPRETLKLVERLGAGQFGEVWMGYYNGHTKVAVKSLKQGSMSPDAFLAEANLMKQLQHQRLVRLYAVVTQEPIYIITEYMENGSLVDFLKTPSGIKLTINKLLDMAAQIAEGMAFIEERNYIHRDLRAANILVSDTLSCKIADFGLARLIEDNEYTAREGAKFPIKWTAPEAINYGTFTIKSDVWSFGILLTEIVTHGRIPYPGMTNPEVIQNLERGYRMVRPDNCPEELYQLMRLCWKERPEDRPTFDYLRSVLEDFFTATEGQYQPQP
UniProt P53667: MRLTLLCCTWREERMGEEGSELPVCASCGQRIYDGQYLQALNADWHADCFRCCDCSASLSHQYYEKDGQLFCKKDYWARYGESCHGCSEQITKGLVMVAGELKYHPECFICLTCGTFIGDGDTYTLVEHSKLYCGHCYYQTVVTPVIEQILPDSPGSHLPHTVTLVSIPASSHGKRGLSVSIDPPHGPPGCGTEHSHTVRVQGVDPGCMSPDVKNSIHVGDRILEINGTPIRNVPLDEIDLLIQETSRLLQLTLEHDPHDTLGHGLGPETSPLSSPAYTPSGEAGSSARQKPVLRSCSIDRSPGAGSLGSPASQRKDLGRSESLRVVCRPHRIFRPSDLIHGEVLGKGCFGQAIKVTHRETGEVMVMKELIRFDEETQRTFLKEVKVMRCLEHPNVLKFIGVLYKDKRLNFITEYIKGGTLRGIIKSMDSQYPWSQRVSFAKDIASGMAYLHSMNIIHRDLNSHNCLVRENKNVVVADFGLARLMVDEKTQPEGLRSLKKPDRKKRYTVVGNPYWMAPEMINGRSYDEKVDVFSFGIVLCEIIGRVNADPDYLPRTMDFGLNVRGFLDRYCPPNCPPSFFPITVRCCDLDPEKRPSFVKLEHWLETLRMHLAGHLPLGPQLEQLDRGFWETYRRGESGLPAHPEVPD
UniProt Q8IWU2: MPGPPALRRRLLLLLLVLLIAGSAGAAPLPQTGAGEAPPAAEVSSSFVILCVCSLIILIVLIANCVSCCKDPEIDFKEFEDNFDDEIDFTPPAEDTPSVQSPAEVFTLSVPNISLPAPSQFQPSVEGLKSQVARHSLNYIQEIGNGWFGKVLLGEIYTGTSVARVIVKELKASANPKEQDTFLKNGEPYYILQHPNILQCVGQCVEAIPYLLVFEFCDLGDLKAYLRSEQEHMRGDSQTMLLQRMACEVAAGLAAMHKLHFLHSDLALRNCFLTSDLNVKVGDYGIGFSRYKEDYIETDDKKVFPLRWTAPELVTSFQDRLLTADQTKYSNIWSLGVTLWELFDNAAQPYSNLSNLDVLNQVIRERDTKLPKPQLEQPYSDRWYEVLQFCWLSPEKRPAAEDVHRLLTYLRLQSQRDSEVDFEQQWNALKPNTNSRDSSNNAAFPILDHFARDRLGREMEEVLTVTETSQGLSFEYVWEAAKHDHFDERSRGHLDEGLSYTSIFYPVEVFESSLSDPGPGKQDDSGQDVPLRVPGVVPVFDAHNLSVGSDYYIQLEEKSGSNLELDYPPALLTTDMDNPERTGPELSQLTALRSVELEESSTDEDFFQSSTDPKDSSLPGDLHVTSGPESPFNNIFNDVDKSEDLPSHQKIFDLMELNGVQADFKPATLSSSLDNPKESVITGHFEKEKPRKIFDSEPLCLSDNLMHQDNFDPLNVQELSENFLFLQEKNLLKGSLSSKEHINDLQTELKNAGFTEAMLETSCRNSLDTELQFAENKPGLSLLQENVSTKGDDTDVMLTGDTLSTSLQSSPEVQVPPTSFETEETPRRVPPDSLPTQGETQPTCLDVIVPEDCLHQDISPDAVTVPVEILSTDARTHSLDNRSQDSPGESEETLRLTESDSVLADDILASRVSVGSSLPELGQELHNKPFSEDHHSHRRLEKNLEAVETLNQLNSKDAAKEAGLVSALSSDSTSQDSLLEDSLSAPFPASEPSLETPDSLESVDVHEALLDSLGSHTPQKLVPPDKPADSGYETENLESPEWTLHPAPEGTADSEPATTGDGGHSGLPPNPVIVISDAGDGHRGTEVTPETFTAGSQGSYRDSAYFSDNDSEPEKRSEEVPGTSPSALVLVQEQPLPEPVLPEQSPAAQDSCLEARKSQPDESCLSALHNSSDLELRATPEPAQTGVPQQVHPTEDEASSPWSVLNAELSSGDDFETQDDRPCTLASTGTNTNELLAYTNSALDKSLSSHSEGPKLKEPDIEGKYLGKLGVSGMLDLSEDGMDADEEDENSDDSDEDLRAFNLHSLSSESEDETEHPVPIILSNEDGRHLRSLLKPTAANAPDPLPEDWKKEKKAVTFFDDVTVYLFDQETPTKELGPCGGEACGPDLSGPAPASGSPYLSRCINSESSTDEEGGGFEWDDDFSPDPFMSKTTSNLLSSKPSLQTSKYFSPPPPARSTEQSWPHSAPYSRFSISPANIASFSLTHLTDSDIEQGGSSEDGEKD
UniProt Q12851: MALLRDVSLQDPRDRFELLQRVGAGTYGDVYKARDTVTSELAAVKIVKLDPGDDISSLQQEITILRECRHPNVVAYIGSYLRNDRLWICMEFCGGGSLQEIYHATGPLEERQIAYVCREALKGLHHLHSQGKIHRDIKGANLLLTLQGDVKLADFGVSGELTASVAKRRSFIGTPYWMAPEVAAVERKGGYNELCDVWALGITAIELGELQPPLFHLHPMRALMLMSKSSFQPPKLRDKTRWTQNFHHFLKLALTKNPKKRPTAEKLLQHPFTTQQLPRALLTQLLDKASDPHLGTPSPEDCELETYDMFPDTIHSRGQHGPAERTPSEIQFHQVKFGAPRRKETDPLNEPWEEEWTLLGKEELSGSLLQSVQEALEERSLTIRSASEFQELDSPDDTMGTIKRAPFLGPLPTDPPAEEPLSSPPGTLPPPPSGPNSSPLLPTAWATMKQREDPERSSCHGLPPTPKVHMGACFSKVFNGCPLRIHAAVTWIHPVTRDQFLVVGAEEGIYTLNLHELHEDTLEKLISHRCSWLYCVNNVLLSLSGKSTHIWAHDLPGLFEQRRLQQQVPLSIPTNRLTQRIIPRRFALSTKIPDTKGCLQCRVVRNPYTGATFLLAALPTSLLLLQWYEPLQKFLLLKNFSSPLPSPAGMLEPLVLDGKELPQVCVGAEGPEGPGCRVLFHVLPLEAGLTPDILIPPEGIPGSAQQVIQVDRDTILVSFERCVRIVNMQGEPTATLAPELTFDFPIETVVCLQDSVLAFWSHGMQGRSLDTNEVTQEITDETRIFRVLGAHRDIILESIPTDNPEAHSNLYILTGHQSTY
UniProt P28482, whole entry: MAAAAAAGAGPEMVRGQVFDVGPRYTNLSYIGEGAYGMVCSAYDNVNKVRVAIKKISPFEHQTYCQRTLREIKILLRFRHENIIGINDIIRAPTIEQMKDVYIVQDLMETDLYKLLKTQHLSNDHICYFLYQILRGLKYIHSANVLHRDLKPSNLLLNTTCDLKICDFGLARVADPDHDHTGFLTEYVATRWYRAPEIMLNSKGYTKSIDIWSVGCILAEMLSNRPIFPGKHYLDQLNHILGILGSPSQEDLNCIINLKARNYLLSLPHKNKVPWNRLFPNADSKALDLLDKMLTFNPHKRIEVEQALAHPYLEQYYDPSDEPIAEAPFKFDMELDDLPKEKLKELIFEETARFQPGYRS
UniProt Q16620, whole entry, looked up: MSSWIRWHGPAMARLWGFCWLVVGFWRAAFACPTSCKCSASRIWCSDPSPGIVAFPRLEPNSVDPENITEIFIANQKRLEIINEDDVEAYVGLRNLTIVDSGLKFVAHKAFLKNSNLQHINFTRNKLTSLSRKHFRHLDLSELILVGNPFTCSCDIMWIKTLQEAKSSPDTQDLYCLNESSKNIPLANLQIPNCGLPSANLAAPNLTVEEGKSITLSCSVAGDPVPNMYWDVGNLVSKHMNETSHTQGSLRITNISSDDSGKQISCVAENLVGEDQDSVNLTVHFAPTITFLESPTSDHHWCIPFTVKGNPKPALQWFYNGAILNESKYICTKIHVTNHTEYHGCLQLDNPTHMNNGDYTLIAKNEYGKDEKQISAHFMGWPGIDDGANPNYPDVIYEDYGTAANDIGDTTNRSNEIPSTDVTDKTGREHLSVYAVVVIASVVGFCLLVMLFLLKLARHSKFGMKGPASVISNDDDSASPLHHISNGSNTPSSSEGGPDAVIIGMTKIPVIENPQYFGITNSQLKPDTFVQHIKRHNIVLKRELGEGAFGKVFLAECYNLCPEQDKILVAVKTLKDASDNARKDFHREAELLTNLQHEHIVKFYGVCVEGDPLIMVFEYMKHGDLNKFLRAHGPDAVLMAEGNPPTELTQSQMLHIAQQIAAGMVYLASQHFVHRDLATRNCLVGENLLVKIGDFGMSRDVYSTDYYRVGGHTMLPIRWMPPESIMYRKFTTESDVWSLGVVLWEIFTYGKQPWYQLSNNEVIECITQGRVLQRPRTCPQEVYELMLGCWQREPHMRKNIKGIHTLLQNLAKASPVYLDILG
UniProt Q96KB5: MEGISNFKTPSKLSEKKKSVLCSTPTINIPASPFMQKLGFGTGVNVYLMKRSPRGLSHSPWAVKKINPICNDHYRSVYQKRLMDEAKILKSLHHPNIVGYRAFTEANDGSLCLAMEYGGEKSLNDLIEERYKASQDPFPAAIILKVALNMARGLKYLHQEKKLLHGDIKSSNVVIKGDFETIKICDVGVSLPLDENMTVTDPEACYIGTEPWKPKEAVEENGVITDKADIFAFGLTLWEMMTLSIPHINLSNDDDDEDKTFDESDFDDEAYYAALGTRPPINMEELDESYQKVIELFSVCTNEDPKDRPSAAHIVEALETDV
UniProt P09619, whole entry: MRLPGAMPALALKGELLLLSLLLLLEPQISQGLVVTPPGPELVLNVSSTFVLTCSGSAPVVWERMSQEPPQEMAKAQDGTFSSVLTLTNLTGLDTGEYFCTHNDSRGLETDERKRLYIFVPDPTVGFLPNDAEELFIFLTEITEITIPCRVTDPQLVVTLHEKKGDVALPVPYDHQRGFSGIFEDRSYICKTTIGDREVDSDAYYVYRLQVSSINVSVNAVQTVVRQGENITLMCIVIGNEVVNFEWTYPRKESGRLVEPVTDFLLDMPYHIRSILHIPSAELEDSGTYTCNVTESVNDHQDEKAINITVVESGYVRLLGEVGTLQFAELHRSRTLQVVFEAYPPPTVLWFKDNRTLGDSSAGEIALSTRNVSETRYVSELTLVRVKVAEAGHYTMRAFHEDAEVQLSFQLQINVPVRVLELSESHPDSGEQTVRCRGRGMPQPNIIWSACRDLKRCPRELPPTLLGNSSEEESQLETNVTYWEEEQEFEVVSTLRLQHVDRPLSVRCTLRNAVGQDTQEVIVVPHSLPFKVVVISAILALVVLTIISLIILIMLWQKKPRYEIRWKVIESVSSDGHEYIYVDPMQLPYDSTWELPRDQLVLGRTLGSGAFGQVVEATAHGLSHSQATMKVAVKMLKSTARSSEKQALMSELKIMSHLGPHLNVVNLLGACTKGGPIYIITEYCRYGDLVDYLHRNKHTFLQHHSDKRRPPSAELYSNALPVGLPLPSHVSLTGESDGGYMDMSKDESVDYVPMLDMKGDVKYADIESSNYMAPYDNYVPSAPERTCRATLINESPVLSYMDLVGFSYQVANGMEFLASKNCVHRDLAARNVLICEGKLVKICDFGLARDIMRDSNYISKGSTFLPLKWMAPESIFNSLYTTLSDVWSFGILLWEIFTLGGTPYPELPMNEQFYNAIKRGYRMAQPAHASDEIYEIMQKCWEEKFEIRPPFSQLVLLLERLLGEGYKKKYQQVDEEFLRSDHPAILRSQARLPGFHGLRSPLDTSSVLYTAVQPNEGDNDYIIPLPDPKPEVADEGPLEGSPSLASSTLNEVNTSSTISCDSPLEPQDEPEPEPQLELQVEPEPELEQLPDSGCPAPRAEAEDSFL
UniProt Q15118, whole entry, looked up: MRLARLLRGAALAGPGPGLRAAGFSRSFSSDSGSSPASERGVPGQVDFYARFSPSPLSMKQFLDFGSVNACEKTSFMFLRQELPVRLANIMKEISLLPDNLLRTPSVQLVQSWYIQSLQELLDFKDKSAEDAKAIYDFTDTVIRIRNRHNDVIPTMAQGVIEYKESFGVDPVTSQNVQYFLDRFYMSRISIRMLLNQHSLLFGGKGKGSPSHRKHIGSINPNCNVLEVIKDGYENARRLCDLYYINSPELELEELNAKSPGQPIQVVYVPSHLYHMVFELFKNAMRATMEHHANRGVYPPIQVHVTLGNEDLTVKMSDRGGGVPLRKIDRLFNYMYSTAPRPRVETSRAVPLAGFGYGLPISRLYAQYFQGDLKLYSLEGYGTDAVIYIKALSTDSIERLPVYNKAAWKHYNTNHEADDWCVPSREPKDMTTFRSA

Key:
Experiment in all cases: kinase-Nluc reporter destabilization hit call (1 = scored as downregulated) (binary); higher = compound decreases kinase abundance
Settings in all cases: K562; 2-18 h
IRAK3 = IRAK3 (UniProt Q9Y616)
JAK1 = JAK1 (UniProt P23458)
LCK = LCK (UniProt P06239)
LIMK1 = LIMK1 (UniProt P53667)
LIMK2 = LIMK2 (UniProt P53671)
LMTK2 = LMTK2 (UniProt Q8IWU2)
LYN = LYN (UniProt P07948)
MAP2K1 = MAP2K1 (UniProt Q02750)
MAP2K2 = MAP2K2 (UniProt P36507)
MAP4K2 = MAP4K2 (UniProt Q12851)
MAPK1 = MAPK1 (UniProt P28482)
MAPK4 = MAPK4 (UniProt P31152)
MAPKAPK2 = MAPKAPK2 (UniProt P49137)
MKNK1 = MKNK1 (UniProt Q9BUB5)
NTRK2 = NTRK2 (UniProt Q16620)
NTRK3 = NTRK3 (UniProt Q16288)
PAK4 = PAK4 (UniProt O96013)
PBK = PBK (UniProt Q96KB5)
PDGFRB = PDGFRB (UniProt P09619)
PDK1 = PDK1 (UniProt Q15118)

Measured: kinase-Nluc reporter destabilization hit call

CN(CC(=O)N(Cc1ccc(C2CCCCC2)cc1)c1ccc(C(=O)NO)cc1)S(=O)(=O)c1c(F)c(F)c(F)c(F)c1F (2.5 µM)
inactive: IRAK3 = 0 | JAK1 = 0 | LCK 0 | LIMK1 = 0 | LIMK2 = 0 | LMTK2 = 0 | LYN 0 | MAP2K1 = 0 | MAP2K2 = 0 | MAP4K2 = 0 | MAPK1 = 0 | MAPK4 = 0 | MAPKAPK2 = 0 | MKNK1 = 0 | NTRK2 = 0 | NTRK3 = 0 | PAK4 = 0 | PBK 0 | PDGFRB 0 | PDK1 = 0

COc1cc(Nc2ncc(F)c(Nc3ccc4c(n3)N(COP(=O)(O)O)C(=O)C(C)(C)O4)n2)cc(OC)c1OC [Fostamatinib (disodium hexahydrate)] (10 µM)
inactive: IRAK3 = 0 | JAK1 = 0 | LCK 0 | LIMK1 = 0 | LIMK2 = 0 | LMTK2 = 0 | LYN 0 | MAP2K1 = 0 | MAP2K2 = 0 | MAP4K2 = 0 | MAPK1 = 0 | MAPK4 = 0 | MAPKAPK2 = 0 | MKNK1 = 0 | NTRK2 = 0 | NTRK3 = 0 | PAK4 = 0 | PBK 0 | PDGFRB 0 | PDK1 = 0

N#CCC1CCN(c2nc(Nc3ccc(N4CCC(O)CC4)cc3)c3c(=O)[nH]ncc3n2)CC1 [Gusacitinib] (10 µM)
inactive: IRAK3 = 0 | JAK1 = 0 | LCK 0 | LIMK1 = 0 | LIMK2 = 0 | LMTK2 = 0 | LYN 0 | MAP2K1 = 0 | MAP2K2 = 0 | MAP4K2 = 0 | MAPK1 = 0 | MAPK4 = 0 | MAPKAPK2 = 0 | MKNK1 = 0 | NTRK2 = 0 | NTRK3 = 0 | PAK4 = 0 | PBK 0 | PDGFRB 0 | PDK1 = 0

C[C@H](c1ccnc(Nc2nc3ccc(-c4cc(N(C)C)ncn4)cc3[nH]2)c1)N1CCN(C(=O)CC(F)(F)F)CC1 (2.5 µM)
inactive: IRAK3 = 0 | JAK1 = 0 | LCK 0 | LIMK1 = 0 | LIMK2 = 0 | LMTK2 = 0 | LYN 0 | MAP2K1 = 0 | MAP2K2 = 0 | MAP4K2 = 0 | MAPK1 = 0 | MAPK4 = 0 | MAPKAPK2 = 0 | MKNK1 = 0 | NTRK2 = 0 | NTRK3 = 0 | PAK4 = 0 | PBK 0 | PDGFRB 0 | PDK1 = 0

CC1CCc2c(cc(Br)c(F)c2Br)N1C=O (stereo not given) (10 µM)
inactive: IRAK3 = 0 | JAK1 = 0 | LCK 0 | LIMK1 = 0 | LIMK2 = 0 | LMTK2 = 0 | LYN 0 | MAP2K1 = 0 | MAP2K2 = 0 | MAP4K2 = 0 | MAPK1 = 0 | MAPK4 = 0 | MAPKAPK2 = 0 | MKNK1 = 0 | NTRK2 = 0 | NTRK3 = 0 | PAK4 = 0 | PBK 0 | PDGFRB 0 | PDK1 = 0

Two consecutive records already listed:
C[C@H](c1ccnc(Nc2nc3ccc(-c4cc(N(C)C)ncn4)cc3[nH]2)c1)N1CCN(C(=O)CC(F)(F)F)CC1 (2.5 µM)
inactive: IRAK3 = 0 | JAK1 = 0 | LCK 0 | LIMK1 = 0 | LIMK2 = 0 | LMTK2 = 0 | LYN 0 | MAP2K1 = 0 | MAP2K2 = 0 | MAP4K2 = 0 | MAPK1 = 0 | MAPK4 = 0 | MAPKAPK2 = 0 | MKNK1 = 0 | NTRK2 = 0 | NTRK3 = 0 | PAK4 = 0 | PBK 0 | PDGFRB 0 | PDK1 = 0

CC1CCc2c(cc(Br)c(F)c2Br)N1C=O (stereo not given) (10 µM)
inactive: IRAK3 = 0 | JAK1 = 0 | LCK 0 | LIMK1 = 0 | LIMK2 = 0 | LMTK2 = 0 | LYN 0 | MAP2K1 = 0 | MAP2K2 = 0 | MAP4K2 = 0 | MAPK1 = 0 | MAPK4 = 0 | MAPKAPK2 = 0 | MKNK1 = 0 | NTRK2 = 0 | NTRK3 = 0 | PAK4 = 0 | PBK 0 | PDGFRB 0 | PDK1 = 0

Next entries follow:

COc1cc2nccc(Oc3ccc(NC(=O)NC4CC4)c(Cl)c3)c2cc1C(N)=O [Lenvatinib (mesylate)] (10 µM)
inactive: IRAK3 = 0 | JAK1 = 0 | LCK 0 | LIMK1 = 0 | LIMK2 = 0 | LMTK2 = 0 | LYN 0 | MAP2K1 = 0 | MAP2K2 = 0 | MAP4K2 = 0 | MAPK1 = 0 | MAPK4 = 0 | MAPKAPK2 = 0 | MKNK1 = 0 | NTRK2 = 0 | NTRK3 = 0 | PAK4 = 0 | PBK 0 | PDGFRB 0 | PDK1 = 0

C=C1C(=O)O[C@H]2C[C@H](C)C(/C=C/C(C)=O)=CC[C@H]12 [Xanthatin] (2.5 µM)
inactive: IRAK3 = 0 | JAK1 = 0 | LCK 0 | LIMK1 = 0 | LIMK2 = 0 | LMTK2 = 0 | LYN 0 | MAP2K1 = 0 | MAP2K2 = 0 | MAP4K2 = 0 | MAPK1 = 0 | MAPK4 = 0 | MAPKAPK2 = 0 | MKNK1 = 0 | NTRK2 = 0 | NTRK3 = 0 | PAK4 = 0 | PBK 0 | PDGFRB 0 | PDK1 = 0

CC(=O)NC1CC(n2cnc(NC(=O)Cc3ccc4ccccc4c3)c2)C1 (stereo not given) (10 µM)
inactive: IRAK3 = 0 | JAK1 = 0 | LCK 0 | LIMK1 = 0 | LIMK2 = 0 | LMTK2 = 0 | LYN 0 | MAP2K1 = 0 | MAP2K2 = 0 | MAP4K2 = 0 | MAPK1 = 0 | MAPK4 = 0 | MAPKAPK2 = 0 | MKNK1 = 0 | NTRK2 = 0 | NTRK3 = 0 | PAK4 = 0 | PBK 0 | PDGFRB 0 | PDK1 = 0

Cn1nccc1Nc1nccc(-c2ccn([C@H](CO)c3ccc(Cl)c(F)c3)c(=O)c2)n1 [Ravoxertinib hydrochloride] (10 µM)
inactive: IRAK3 = 0 | JAK1 = 0 | LCK 0 | LIMK1 = 0 | LIMK2 = 0 | LMTK2 = 0 | LYN 0 | MAP2K1 = 0 | MAP2K2 = 0 | MAP4K2 = 0 | MAPK1 = 0 | MAPK4 = 0 | MAPKAPK2 = 0 | MKNK1 = 0 | NTRK2 = 0 | NTRK3 = 0 | PAK4 = 0 | PBK 0 | PDGFRB 0 | PDK1 = 0

O=C1NC(=O)/C(=C\c2cccc(C(F)(F)F)c2)S1 (2.5 µM)
inactive: IRAK3 = 0 | JAK1 = 0 | LCK 0 | LIMK1 = 0 | LIMK2 = 0 | LMTK2 = 0 | LYN 0 | MAP2K1 = 0 | MAP2K2 = 0 | MAP4K2 = 0 | MAPK1 = 0 | MAPK4 = 0 | MAPKAPK2 = 0 | MKNK1 = 0 | NTRK2 = 0 | NTRK3 = 0 | PAK4 = 0 | PBK 0 | PDGFRB 0 | PDK1 = 0

C[C@@]1(c2ncncc2F)NC(=O)c2cc(-c3cn[nH]c3)ccc21 (10 µM)
inactive: IRAK3 = 0 | JAK1 = 0 | LCK 0 | LIMK1 = 0 | LIMK2 = 0 | LMTK2 = 0 | LYN 0 | MAP2K1 = 0 | MAP2K2 = 0 | MAP4K2 = 0 | MAPK1 = 0 | MAPK4 = 0 | MAPKAPK2 = 0 | MKNK1 = 0 | NTRK2 = 0 | NTRK3 = 0 | PAK4 = 0 | PBK 0 | PDGFRB 0 | PDK1 = 0

COCCNc1nc2ccc(C#CC3(O)CCCCC3)cc2n1-c1ccnc(N)n1 (10 µM)
inactive: IRAK3 = 0 | JAK1 = 0 | LCK 0 | LIMK1 = 0 | LIMK2 = 0 | LMTK2 = 0 | LYN 0 | MAP2K1 = 0 | MAP2K2 = 0 | MAP4K2 = 0 | MAPK1 = 0 | MAPK4 = 0 | MAPKAPK2 = 0 | MKNK1 = 0 | NTRK2 = 0 | NTRK3 = 0 | PAK4 = 0 | PBK 0 | PDGFRB 0 | PDK1 = 0

COc1cc2nccc(Oc3ccc(NC(=O)NC4CC4)c(Cl)c3)c2cc1C(N)=O [Lenvatinib] (10 µM)
inactive: IRAK3 = 0 | JAK1 = 0 | LCK 0 | LIMK1 = 0 | LIMK2 = 0 | LMTK2 = 0 | LYN 0 | MAP2K1 = 0 | MAP2K2 = 0 | MAP4K2 = 0 | MAPK1 = 0 | MAPK4 = 0 | MAPKAPK2 = 0 | MKNK1 = 0 | NTRK2 = 0 | NTRK3 = 0 | PAK4 = 0 | PBK 0 | PDGFRB 0 | PDK1 = 0

O=C1N[C@@H](Cc2c[nH]c3ccccc23)C(=O)N2CCC[C@@H]12 [Brevianamide F] (10 µM)
inactive: IRAK3 = 0 | JAK1 = 0 | LCK 0 | LIMK1 = 0 | LIMK2 = 0 | LMTK2 = 0 | LYN 0 | MAP2K1 = 0 | MAP2K2 = 0 | MAP4K2 = 0 | MAPK1 = 0 | MAPK4 = 0 | MAPKAPK2 = 0 | MKNK1 = 0 | NTRK2 = 0 | NTRK3 = 0 | PAK4 = 0 | PBK 0 | PDGFRB 0 | PDK1 = 0

Cn1cnc(Cn2ccc3ccc(CNCc4[nH]c5ccccc5c4[C@H]4NC(=O)c5ccc(O)cc54)cc32)c1 (10 µM)
inactive: IRAK3 = 0 | JAK1 = 0 | LCK 0 | LIMK1 = 0 | LIMK2 = 0 | LMTK2 = 0 | LYN 0 | MAP2K1 = 0 | MAP2K2 = 0 | MAP4K2 = 0 | MAPK1 = 0 | MAPK4 = 0 | MAPKAPK2 = 0 | MKNK1 = 0 | NTRK2 = 0 | NTRK3 = 0 | PAK4 = 0 | PBK 0 | PDGFRB 0 | PDK1 = 0

C=CC(=O)Nc1ccc(CN2C(=O)N(c3cc(OC)cc(OC)c3)Cc3cnc(Nc4ccc(N5CCN(C)CC5)cc4)nc32)cc1 (2.5 µM)
inactive: IRAK3 = 0 | JAK1 = 0 | LCK 0 | LIMK1 = 0 | LIMK2 = 0 | LMTK2 = 0 | LYN 0 | MAP2K1 = 0 | MAP2K2 = 0 | MAP4K2 = 0 | MAPK1 = 0 | MAPK4 = 0 | MAPKAPK2 = 0 | MKNK1 = 0 | NTRK2 = 0 | NTRK3 = 0 | PAK4 = 0 | PBK 0 | PDGFRB 0 | PDK1 = 0

O=C(NCCN1CCCC1)c1cc(-c2ccc(CN3CCOCC3)cc2)nc2ccc(F)cc12 (10 µM)
inactive: IRAK3 = 0 | JAK1 = 0 | LCK 0 | LIMK1 = 0 | LIMK2 = 0 | LMTK2 = 0 | LYN 0 | MAP2K1 = 0 | MAP2K2 = 0 | MAP4K2 = 0 | MAPK1 = 0 | MAPK4 = 0 | MAPKAPK2 = 0 | MKNK1 = 0 | NTRK2 = 0 | NTRK3 = 0 | PAK4 = 0 | PBK 0 | PDGFRB 0 | PDK1 = 0

Oc1cc(O)c2cc(O)c(-c3cc(O)c(O)c(O)c3)[o+]c2c1 [Delphinidin (chloride)] (10 µM)
inactive: IRAK3 = 0 | JAK1 = 0 | LCK 0 | LIMK1 = 0 | LIMK2 = 0 | LMTK2 = 0 | LYN 0 | MAP2K1 = 0 | MAP2K2 = 0 | MAP4K2 = 0 | MAPK1 = 0 | MAPK4 = 0 | MAPKAPK2 = 0 | MKNK1 = 0 | NTRK2 = 0 | NTRK3 = 0 | PAK4 = 0 | PBK 0 | PDGFRB 0 | PDK1 = 0
